Two substances from PMC12679573 can be followed below.

Amino acid sequences for entries named in this document (tags omitted). Residues count along the entry.
UniProt P38647, residues 47-679: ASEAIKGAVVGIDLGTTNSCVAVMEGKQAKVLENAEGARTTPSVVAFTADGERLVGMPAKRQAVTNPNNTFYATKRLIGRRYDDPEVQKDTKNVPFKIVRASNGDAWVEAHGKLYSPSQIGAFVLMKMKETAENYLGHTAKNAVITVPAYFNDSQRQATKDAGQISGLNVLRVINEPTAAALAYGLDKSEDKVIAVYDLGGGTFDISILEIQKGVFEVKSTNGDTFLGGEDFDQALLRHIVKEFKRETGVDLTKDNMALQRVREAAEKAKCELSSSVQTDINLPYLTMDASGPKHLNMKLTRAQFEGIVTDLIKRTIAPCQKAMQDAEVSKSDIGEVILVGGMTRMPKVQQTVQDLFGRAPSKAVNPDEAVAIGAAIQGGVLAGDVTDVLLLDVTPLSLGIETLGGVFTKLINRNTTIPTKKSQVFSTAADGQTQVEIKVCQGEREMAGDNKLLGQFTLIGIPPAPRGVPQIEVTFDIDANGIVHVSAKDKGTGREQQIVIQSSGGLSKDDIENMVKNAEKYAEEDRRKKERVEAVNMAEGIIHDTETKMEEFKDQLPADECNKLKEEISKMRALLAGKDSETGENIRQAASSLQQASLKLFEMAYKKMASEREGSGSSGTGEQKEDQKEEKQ
UniProt Q8K2B3, residues 43-664: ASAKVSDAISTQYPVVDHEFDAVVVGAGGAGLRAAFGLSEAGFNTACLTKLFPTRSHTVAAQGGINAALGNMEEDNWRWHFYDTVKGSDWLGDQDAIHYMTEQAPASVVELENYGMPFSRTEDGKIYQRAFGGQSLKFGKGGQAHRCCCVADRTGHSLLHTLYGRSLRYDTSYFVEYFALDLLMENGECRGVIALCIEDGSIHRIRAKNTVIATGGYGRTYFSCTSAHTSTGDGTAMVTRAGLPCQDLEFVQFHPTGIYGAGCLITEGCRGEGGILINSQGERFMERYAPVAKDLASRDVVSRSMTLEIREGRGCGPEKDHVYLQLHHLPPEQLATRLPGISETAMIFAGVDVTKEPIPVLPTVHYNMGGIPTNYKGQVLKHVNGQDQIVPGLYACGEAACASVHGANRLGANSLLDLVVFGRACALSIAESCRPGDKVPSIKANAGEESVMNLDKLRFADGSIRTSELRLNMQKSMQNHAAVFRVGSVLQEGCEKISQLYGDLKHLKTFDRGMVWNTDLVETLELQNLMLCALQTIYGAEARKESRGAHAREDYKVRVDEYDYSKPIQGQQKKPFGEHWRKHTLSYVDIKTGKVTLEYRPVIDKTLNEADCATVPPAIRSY
UniProt P11881: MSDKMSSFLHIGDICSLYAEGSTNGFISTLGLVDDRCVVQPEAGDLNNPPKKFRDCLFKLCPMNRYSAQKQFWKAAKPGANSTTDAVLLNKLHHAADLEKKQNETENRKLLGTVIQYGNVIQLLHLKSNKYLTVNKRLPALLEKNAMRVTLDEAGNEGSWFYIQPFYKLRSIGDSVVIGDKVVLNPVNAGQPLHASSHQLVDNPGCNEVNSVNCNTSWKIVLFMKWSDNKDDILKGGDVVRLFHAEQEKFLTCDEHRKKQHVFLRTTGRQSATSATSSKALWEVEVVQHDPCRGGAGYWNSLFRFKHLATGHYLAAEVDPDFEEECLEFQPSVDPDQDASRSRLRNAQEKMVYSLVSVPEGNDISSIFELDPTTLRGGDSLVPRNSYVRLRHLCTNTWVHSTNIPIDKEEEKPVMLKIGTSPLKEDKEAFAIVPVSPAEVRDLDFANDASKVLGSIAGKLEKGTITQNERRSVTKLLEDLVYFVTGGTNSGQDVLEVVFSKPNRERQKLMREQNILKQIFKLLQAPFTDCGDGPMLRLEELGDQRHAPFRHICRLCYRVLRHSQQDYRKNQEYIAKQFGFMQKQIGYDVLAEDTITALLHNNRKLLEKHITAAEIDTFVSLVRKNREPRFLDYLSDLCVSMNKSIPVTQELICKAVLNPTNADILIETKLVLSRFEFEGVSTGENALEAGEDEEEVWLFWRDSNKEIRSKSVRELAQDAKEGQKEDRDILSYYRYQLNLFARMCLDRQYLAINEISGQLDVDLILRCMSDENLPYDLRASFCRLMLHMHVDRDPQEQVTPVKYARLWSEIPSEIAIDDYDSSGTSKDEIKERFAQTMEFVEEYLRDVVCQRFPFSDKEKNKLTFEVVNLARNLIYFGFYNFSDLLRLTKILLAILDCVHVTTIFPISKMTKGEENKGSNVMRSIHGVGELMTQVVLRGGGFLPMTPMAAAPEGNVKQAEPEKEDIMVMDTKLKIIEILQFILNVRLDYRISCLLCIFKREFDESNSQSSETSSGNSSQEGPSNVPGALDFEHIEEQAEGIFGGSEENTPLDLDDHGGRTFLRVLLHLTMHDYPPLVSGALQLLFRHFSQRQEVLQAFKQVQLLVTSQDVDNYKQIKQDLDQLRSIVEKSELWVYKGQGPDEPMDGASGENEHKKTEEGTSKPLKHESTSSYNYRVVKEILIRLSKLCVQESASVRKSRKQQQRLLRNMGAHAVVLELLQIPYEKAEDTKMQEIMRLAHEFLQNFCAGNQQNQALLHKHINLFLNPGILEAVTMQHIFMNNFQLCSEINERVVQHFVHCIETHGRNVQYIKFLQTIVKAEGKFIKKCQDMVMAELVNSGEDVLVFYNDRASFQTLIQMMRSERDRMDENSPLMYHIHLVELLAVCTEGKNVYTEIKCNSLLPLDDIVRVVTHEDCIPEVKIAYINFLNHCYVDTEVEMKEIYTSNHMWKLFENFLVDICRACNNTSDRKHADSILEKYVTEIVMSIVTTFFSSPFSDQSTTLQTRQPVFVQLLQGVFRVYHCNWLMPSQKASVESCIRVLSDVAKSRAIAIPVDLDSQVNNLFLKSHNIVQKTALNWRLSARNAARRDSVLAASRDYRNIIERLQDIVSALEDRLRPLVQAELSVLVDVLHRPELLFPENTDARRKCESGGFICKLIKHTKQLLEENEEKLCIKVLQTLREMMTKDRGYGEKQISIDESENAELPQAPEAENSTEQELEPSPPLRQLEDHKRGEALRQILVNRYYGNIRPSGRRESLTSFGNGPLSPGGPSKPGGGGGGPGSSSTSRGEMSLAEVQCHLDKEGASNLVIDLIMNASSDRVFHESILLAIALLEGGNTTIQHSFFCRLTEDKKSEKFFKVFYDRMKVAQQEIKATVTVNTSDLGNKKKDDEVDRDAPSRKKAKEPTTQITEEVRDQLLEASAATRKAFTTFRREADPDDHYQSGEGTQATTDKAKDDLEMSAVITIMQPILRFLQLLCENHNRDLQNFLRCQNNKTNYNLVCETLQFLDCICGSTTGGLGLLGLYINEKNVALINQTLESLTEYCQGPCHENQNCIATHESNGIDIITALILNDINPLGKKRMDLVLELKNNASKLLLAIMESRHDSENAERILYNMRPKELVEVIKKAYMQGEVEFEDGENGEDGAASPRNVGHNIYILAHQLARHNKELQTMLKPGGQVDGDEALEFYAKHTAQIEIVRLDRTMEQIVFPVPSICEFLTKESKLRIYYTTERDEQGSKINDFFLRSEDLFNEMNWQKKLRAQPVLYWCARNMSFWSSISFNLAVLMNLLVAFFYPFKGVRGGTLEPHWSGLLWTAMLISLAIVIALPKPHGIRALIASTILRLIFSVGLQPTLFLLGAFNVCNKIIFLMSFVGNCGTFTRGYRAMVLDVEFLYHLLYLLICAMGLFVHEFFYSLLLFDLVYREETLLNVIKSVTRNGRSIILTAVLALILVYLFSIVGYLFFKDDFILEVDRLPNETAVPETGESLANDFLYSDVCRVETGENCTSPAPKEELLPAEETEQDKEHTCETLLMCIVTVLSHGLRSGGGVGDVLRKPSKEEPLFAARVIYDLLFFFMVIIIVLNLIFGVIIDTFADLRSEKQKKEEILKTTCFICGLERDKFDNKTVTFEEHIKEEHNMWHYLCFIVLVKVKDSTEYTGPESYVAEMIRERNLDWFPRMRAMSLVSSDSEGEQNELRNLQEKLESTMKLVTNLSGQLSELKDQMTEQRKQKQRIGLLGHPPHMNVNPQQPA

Results are given in words; binding and its absence hold for the method and conditions named. In cells and extracts the contact can be indirect. Some binding calls cover weakened binding; strength is not graded here.

Assay [1] deals with T1, SDHB (mouse (endogenous in primary hepatocytes)) (UniProt Q9CQA3).
T1 sequence: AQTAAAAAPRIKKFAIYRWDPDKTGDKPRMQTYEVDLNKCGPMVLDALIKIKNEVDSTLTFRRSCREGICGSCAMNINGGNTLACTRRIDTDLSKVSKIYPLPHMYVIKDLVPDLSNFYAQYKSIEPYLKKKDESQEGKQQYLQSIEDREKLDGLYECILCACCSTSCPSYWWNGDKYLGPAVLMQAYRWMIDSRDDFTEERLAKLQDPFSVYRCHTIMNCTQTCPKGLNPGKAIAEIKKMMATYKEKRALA
The experiment in a line: co-IP; whole-cell extracts (1% dodecyl maltoside) of primary hepatocytes of WT and hKO mice after PHx; antibody cross-linked to protein A/G agarose, overnight at 4 °C (results: by SDHB; methods: SDHA antibody).

In assay [2] the target is GRP75 (mouse (endogenous in primary hepatocytes)) (UniProt P38647). In words: proximity ligation; Duolink in situ PLA on fixed, permeabilised primary hepatocytes of WT, hKO and hKI mice after PHx; primary antibodies to VDAC1, GRP75, IP3R1; confocal microscopy.

With “SDHA (from UniProt Q8K2B3 43-664) (enzyme)”, the binding result in assay [1] is “binds”.

Regarding “IP3R1 (from UniProt P11881 1-2749) (receptor)”, the binding result in assay [2] is “binds”.
